Record: PubChem BioAssay AID1159578 (Peter MacCallum Cancer Centre, 2015)
The whole screen tested about 18,000 reagents; below is a random part of them. About 1,030 of all reagents (5.7%) were called active. 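Inactive calls also include pools with fewer than 3300 nuclei, whose migration was not assessed.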 The raw values are shown without normalisation. Entries without a mark were called inactive.

Assay: 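siRNA pools altering how lymphatic endothelial cells close a scratch wound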 (primary screen)
System: human lymphatic endothelial cells
Reagent: siRNA pool against human genes, 40 nM
Duration: 48 h after transfection
Detection: 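High-content imaging of dye-stained cells in a scratch assay measures filled wound area and nuclei per well; duplicate means given as ratio to mock and robust z-score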
Direction: migration robust z-score: higher = faster migration into the scratch; migration relative to mock: higher = more scratch area covered than mock; nuclei per well: higher = more cells in the well
Call rule: 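Pools averaging fewer than 3300 nuclei are never called; remaining pools count as changed when migration robust z lies outside -2 to 2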
Calls: active = migration changed; inactive = no migration change, or too few cells

no.	target gene	migration robust z-score	migration class with cell-count check	migration relative to mock	nuclei per well, duplicate mean
1	PSMA4 (proteasome 20S subunit alpha 4)	0.44	migration z between -2 and 2; enough cells	0.89	4698
2	OR2T5 (olfactory receptor family 2 subfamily T member 5)	-0.07	migration z between -2 and 2; enough cells	0.86	6022
3	SELENOH (selenoprotein H)	0.36	migration z between -2 and 2; enough cells	0.98	6394
4	DLX5 (distal-less homeobox 5)	1.01	migration z between -2 and 2; enough cells	1	5686
5	LRP2 (LDL receptor related protein 2)	0.1	migration z between -2 and 2; enough cells	0.92	6972
6	CFAP299 (cilia and flagella associated protein 299)	-0.6	migration z between -2 and 2; enough cells	0.74	5557
7	PEAR1 (platelet endothelial aggregation receptor 1)	2.31 (active)	migration z above 2; enough cells	1.48	6323
8	PATE2 (prostate and testis expressed 2)	-0.16	migration z between -2 and 2; enough cells	0.84	6520
9	OLFML2B (olfactomedin like 2B)	0.6	migration z between -2 and 2; enough cells	1.04	6296
10	LRRC46 (leucine rich repeat containing 46)	-0.01	migration z between -2 and 2; enough cells	0.88	6287
11	OR13C5 (olfactory receptor family 13 subfamily C member 5)	0.68	migration z between -2 and 2; enough cells	1.06	5696
12	TARS2 (threonyl-tRNA synthetase 2, mitochondrial)	-0.38	migration z between -2 and 2; enough cells	0.79	5536
13	CENPL (centromere protein L)	-0.4	migration z between -2 and 2; enough cells	0.78	5776
14	SLC35D3	-0.36	migration z between -2 and 2; enough cells	0.8	5742
15	GON4L (gon-4 like)	-0.77	migration z between -2 and 2; enough cells	0.68	6096
16	ZNF608 (zinc finger protein 608)	-0.94	migration z between -2 and 2; enough cells	0.64	5660
17	PROZ (protein Z, vitamin K dependent plasma glycoprotein)	-0.16	migration z between -2 and 2; enough cells	0.78	5400
18	FGF5 (fibroblast growth factor 5)	0.16	migration z between -2 and 2; enough cells	0.84	5337
19	PCDHB8 (protocadherin beta 8)	0.12	migration z between -2 and 2; enough cells	0.92	7222
20	PRTG (protogenin)	0.68	migration z between -2 and 2; enough cells	1.06	5764
21	PHYH (phytanoyl-CoA 2-hydroxylase)	0.23	migration z between -2 and 2; enough cells	0.85	6114
22	TMED3 (transmembrane p24 trafficking protein 3)	-0.69	migration z between -2 and 2; enough cells	0.7	5244
23	SLC16A10	-0.88	migration z between -2 and 2; enough cells	0.64	4480
24	CCDC15 (coiled-coil domain containing 15)	0.02	migration z between -2 and 2; enough cells	0.9	5964
25	LOC402715 (karyopherin subunit alpha 2 pseudogene)	-1.12	migration z between -2 and 2; enough cells	0.6	5233
26	CLEC9A (C-type lectin domain containing 9A)	0.5	migration z between -2 and 2; enough cells	1.02	5648
27	AP1G2 (adaptor related protein complex 1 subunit gamma 2)	-0.08	migration z between -2 and 2; enough cells	0.86	5520
28	TTPA (alpha tocopherol transfer protein)	0.7	migration z between -2 and 2; enough cells	0.94	6340
29	SLAMF6 (SLAM family member 6)	0.26	migration z between -2 and 2; enough cells	0.86	5616
30	MYEOV (myeloma overexpressed)	1.66	migration z between -2 and 2; enough cells	1.31	6088
31	STX18 (syntaxin 18)	1.79	migration z between -2 and 2; enough cells	1.15	6331
32	MLH3 (mutL homolog 3)	1.82	migration z between -2 and 2; enough cells	1.16	5025
33	CENPP (centromere protein P)	-3.19	under 3300 nuclei; migration not judged	0.04	2550
34	LYPD6 (LY6/PLAUR domain containing 6)	-1.15	migration z between -2 and 2; enough cells	0.59	6467
35	TAS2R5 (taste 2 receptor member 5)	2.44 (active)	migration z above 2; enough cells	1.52	6924
36	USP6NL (USP6 N-terminal like)	-1.25	migration z between -2 and 2; enough cells	0.56	5224
37	DYNAP (dynactin associated protein)	-2.15 (active)	migration z below -2; enough cells	0.32	5618
38	DZIP1 (DAZ interacting zinc finger protein 1)	1.5	migration z between -2 and 2; enough cells	1.27	6168
39	GABARAP (GABA type A receptor-associated protein)	-0.39	migration z between -2 and 2; enough cells	0.73	6297

Not a retest: an excerpt of the list.
no.	target gene	migration robust z-score	migration class with cell-count check	migration relative to mock	nuclei per well, duplicate mean
14	SLC35D3	-0.36	migration z between -2 and 2; enough cells	0.8	5742
15	GON4L (gon-4 like)	-0.77	migration z between -2 and 2; enough cells	0.68	6096
